Data as given in publication PMC8864165, “Functional Effects of ARV-1502 Analogs Against Bacterial Hsp70 and Implications for Antimicrobial Activity” (Frontiers in Chemistry, 2022).
Results are given in words; binding and its absence hold for the method and conditions named.

By UniProt entry, the sequences of proteins in these tests, tags left out. Where a name states a change or a piece, a line headed by the entry shows the natural chain unless it says otherwise.
UniProt P0A6Y8: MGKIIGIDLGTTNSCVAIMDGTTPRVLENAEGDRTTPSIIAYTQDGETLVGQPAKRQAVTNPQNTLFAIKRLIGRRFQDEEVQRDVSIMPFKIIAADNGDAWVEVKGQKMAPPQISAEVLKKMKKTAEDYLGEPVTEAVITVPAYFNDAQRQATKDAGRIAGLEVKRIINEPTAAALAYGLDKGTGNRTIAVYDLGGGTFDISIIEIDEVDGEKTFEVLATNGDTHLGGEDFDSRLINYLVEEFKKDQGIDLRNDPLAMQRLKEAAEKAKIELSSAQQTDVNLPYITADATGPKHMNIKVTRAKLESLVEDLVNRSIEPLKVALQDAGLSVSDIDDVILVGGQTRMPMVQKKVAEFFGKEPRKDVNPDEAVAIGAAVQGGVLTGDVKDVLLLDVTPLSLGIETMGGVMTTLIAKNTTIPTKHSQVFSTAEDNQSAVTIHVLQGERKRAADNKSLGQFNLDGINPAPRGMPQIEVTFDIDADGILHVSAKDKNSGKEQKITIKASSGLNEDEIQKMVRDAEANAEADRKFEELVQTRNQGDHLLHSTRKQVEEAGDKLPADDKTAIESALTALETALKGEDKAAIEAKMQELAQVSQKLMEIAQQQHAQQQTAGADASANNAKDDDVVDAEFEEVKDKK

Molecular target: E. coli DnaK (Escherichia coli) (UniProt P0A6Y8)
Assay: fluorescence polarisation; competition screen at one concentration: unlabeled peptide 5 µmol/L with 5 µmol/L E. coli DnaK, or 35 µmol/L with 16 µmol/L S. aureus DnaK, 90 min 28°C, then Cf-ARV-1502 (10 µL of 80 nmol/L), 90 min 28°C; duplicates; FP normalized to ARV-1502; both purified

binding | Binder
no binding | RPDKPRPKKPRPRPPRPVR (N-terminal Chex (1-amino-cyclohexane carboxylic acid); C-terminal amide) [peptide 122]
no binding | RPDKPRPDKPRPRPPRPVR (N-terminal Chex (1-amino-cyclohexane carboxylic acid); C-terminal amide) [peptide 108]
